These are yes or no findings as the source states them, for the method shown. Binding seen in cells or lysates may run through a third protein. Some binding calls cover weakened binding; strength is not graded here.
Key:
[1] = biological target: STAT3 (human (endogenous in LNCaP)) (UniProt P40763); assay: co-IP; endogenous proteins in LNCaP cell lysate (20 mM Tris pH 8.0, 150 mM NaCl, 5 mM MgCl2, 0.5% NP40), 2 mg precleared lysate with 6 ug antibody overnight at 4 C, protein G Dynabeads or agarose, western blot; in some panels cells treated 16 hr with R1881 or vehicle, or transfected with WDR77 or control siRNA 72 hr before
[2] = biological target: p53 (wild-type) (human (endogenous in LNCaP)) (UniProt P04637); assay: as above

The chains behind the UniProt entries cited, without tags or fusion partners.
UniProt P40763: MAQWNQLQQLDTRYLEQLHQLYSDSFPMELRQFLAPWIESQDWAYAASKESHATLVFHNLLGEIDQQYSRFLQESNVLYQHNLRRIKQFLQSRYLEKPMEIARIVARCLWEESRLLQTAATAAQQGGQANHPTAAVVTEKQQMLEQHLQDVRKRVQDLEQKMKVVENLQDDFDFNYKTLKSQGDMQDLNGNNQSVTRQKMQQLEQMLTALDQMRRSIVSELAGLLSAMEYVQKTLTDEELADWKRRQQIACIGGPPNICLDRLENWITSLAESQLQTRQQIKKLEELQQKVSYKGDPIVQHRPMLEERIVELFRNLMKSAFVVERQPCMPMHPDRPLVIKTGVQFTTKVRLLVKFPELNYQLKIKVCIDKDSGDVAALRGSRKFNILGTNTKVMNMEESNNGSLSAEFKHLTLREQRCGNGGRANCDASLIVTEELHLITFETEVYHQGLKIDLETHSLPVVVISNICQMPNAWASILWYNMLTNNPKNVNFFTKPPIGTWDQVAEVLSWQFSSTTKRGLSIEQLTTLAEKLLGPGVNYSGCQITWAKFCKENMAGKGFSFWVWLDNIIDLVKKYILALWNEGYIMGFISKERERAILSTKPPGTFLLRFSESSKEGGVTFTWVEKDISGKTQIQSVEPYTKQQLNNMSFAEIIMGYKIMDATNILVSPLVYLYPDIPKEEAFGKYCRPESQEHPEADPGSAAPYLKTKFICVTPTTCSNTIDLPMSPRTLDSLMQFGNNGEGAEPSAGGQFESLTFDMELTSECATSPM

| binding [1] | binding [2] | Binder |
| --- | --- | --- |
| binds |  | IRF1 (protein, UniProt P10914 1-325) MPITRMRMRPWLEMQINSNQIPGLIWINKEEMIFQIPWKHAAKHGWDINKDACLFRSWAIHTGRYKAGEKEPDPKTWKANFRCAMNSLPDIEEVKDQSRNKGSSAVRVYRMLPPLTKNQRKERKSKSSRDAKSKAKRKSCGDSSPDTFSDGLSSSTLPDDHSSYTVPGYMQDLEVEQALTPALSPCAVSSTLPDWHIPVEVVPDSTSDLYNFQVSPMPSTSEATTDEDEEGKLPEDIMKLLEQSEWQPTNVDGKGYLLNEPGVQPTSVYGDFSCKEEPEIDSPGGDIGLSLQRVFTDLKNMDATWLDSLLTPVRLPSIQAIPCAP |
|  | binds | PGAM5 short isoform (protein, UniProt Q96HS1-2 1-255) MAFRQALQLAACGLAGGSAAVLFSAVAVGKPRAGGDAEPRPAEPPAWAGGARPGPGVWDPNWDRREPLSLINVRKRNVESGEEELASKLDHYKAKATRHIFLIRHSQYHVDGSLEKDRTLTPLGREQAELTGLRLASLGLKFNKIVHSSMTRAIETTDIISRHLPGVCKVSTDLLREGAPIEPDPPVSHWKPEAVQYYEDGARIEAAFRNYIHRADARQEEDSYEIFICHANVIRYIVCSIPPLLSAGDFVLLGS |

— publication PMC5608510
